The supplement of paper PMC10849652
The other results are listed elsewhere or left out.

Amino acid sequences for entries named in this document (tags omitted). A change or cut given only in a name is not applied to a line headed by its entry.
UniProt P60228, whole entry, looked up: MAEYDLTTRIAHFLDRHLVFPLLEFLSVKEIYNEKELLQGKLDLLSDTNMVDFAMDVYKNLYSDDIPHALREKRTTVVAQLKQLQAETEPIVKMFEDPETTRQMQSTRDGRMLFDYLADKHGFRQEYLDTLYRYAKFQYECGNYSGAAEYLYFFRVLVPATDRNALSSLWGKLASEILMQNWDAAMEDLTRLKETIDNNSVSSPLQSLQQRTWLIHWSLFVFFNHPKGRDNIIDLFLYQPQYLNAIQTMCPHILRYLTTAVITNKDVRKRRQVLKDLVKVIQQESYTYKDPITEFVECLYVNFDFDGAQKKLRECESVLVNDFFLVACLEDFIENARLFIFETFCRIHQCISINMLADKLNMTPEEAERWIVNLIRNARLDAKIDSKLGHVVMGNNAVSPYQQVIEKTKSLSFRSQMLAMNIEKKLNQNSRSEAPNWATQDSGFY
UniProt Q0PNE2: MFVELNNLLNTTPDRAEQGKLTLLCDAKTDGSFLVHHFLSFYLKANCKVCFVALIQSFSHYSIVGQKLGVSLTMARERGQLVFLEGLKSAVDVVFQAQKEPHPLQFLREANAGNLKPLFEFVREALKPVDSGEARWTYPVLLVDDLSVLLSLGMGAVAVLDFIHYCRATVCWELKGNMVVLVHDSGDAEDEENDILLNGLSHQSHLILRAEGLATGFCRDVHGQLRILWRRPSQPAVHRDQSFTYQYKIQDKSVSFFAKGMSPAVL
UniProt Q9BQ52: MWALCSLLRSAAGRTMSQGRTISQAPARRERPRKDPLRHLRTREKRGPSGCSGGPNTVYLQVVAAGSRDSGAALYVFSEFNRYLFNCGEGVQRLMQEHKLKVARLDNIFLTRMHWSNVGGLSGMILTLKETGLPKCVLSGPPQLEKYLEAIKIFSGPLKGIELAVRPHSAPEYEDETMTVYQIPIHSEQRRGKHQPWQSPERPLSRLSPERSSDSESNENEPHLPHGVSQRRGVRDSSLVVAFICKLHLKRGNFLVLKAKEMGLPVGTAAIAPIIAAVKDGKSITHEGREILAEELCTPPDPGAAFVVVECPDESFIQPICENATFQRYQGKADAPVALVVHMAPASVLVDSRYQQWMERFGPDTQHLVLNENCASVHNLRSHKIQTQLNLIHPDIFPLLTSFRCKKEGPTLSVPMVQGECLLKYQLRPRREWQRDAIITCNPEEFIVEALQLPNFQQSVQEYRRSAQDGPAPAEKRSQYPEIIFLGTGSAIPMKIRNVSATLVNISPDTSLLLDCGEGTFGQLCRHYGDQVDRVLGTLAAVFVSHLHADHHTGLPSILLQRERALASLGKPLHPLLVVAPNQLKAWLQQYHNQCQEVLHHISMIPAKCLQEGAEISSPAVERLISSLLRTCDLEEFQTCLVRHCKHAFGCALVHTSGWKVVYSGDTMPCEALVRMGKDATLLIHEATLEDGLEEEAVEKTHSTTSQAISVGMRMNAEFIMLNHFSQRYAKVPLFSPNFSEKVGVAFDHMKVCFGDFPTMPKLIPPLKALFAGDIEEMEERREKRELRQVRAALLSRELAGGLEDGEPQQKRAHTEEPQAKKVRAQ
UniProt O95163: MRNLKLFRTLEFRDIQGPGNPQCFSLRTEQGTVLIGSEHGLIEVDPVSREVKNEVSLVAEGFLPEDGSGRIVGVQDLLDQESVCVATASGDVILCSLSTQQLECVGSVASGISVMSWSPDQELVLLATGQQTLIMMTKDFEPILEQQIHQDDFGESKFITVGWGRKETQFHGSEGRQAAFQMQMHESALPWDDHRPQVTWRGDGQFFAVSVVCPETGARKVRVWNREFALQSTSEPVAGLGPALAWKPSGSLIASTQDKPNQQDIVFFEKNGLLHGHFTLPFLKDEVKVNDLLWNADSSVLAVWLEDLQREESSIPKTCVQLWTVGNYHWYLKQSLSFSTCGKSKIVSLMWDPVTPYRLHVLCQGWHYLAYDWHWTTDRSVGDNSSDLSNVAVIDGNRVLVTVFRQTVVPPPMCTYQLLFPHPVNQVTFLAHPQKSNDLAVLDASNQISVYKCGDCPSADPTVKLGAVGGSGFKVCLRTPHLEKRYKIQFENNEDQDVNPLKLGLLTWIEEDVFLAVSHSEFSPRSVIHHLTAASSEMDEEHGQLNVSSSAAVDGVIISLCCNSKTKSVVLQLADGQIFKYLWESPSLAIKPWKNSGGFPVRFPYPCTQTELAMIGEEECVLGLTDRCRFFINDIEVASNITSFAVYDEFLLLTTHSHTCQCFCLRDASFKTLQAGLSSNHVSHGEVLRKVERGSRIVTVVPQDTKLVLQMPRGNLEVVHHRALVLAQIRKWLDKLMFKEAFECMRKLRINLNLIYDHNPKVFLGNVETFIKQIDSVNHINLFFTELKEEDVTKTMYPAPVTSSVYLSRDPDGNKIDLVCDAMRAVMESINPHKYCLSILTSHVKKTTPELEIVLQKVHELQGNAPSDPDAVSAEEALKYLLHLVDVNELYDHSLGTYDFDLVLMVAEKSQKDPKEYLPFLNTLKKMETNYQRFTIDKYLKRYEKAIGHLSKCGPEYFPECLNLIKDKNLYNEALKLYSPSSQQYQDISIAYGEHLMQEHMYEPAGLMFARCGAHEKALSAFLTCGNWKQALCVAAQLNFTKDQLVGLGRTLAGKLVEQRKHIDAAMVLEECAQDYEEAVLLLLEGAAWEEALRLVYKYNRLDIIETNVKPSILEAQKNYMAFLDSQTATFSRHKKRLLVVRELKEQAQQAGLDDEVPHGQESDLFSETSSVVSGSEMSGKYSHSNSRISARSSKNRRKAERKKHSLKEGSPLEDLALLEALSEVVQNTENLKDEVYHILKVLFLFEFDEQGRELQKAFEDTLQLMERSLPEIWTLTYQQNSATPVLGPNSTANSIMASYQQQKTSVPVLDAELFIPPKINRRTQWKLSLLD
UniProt Q96EB1: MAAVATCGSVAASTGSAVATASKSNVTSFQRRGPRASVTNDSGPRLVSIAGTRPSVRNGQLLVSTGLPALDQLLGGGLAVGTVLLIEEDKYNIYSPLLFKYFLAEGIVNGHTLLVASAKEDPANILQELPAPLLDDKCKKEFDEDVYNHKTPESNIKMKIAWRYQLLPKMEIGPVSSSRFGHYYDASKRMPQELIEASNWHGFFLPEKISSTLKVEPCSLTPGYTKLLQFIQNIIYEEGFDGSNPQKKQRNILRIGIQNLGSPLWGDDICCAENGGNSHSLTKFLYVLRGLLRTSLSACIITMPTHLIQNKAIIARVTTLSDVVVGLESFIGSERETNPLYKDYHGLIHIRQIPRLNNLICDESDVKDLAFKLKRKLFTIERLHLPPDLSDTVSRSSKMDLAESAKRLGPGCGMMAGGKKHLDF
UniProt Q32P44: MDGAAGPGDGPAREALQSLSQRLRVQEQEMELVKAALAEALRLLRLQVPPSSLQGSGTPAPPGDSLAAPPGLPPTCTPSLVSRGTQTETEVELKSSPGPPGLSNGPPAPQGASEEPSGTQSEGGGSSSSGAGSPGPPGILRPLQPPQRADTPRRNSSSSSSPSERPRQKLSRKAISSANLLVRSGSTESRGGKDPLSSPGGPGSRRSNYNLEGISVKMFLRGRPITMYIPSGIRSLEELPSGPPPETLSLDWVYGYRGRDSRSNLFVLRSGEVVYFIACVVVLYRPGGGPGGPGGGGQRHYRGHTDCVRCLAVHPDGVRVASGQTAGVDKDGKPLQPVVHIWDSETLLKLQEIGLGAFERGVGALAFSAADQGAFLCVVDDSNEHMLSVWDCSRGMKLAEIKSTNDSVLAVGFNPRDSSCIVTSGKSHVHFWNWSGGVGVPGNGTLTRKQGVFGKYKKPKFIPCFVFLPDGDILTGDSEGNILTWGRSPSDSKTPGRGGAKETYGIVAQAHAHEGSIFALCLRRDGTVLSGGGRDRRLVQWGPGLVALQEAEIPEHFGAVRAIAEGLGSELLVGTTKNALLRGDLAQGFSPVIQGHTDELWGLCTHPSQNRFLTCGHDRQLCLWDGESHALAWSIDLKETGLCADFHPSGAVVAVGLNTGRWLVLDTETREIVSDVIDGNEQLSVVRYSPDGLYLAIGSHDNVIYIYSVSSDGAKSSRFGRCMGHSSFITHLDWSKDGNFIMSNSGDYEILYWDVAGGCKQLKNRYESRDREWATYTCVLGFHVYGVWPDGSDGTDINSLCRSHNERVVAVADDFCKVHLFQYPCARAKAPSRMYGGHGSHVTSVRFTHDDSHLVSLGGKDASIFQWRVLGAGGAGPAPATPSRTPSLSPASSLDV
UniProt Q15369, whole entry, looked up: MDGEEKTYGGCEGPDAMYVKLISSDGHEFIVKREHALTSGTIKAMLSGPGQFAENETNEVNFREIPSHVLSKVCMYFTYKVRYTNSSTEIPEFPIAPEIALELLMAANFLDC
UniProt P54852: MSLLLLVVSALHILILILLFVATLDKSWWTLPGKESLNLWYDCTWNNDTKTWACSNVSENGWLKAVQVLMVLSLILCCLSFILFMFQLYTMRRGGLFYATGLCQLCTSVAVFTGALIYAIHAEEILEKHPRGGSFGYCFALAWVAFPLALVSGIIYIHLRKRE
UniProt Q6ZTU2, whole entry, looked up: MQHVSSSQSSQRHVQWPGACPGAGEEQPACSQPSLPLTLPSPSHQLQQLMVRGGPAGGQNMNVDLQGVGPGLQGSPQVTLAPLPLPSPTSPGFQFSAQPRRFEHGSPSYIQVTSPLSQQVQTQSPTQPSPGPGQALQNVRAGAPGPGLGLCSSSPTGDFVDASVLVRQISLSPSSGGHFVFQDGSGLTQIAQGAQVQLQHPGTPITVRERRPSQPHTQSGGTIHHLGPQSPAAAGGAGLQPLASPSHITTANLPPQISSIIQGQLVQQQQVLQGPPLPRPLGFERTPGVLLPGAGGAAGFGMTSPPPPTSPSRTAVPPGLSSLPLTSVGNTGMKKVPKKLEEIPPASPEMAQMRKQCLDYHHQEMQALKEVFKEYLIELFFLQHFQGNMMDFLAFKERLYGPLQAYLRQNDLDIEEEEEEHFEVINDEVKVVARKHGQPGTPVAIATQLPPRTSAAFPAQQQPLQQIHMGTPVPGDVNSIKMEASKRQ
UniProt Q8N5X7: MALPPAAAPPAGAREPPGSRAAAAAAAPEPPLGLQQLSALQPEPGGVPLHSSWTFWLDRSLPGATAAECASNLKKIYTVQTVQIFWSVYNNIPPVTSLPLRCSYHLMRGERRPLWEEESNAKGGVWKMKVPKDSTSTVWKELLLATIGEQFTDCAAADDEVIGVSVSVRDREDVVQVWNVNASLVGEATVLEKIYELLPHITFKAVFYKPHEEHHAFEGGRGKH
UniProt Q2NKX8: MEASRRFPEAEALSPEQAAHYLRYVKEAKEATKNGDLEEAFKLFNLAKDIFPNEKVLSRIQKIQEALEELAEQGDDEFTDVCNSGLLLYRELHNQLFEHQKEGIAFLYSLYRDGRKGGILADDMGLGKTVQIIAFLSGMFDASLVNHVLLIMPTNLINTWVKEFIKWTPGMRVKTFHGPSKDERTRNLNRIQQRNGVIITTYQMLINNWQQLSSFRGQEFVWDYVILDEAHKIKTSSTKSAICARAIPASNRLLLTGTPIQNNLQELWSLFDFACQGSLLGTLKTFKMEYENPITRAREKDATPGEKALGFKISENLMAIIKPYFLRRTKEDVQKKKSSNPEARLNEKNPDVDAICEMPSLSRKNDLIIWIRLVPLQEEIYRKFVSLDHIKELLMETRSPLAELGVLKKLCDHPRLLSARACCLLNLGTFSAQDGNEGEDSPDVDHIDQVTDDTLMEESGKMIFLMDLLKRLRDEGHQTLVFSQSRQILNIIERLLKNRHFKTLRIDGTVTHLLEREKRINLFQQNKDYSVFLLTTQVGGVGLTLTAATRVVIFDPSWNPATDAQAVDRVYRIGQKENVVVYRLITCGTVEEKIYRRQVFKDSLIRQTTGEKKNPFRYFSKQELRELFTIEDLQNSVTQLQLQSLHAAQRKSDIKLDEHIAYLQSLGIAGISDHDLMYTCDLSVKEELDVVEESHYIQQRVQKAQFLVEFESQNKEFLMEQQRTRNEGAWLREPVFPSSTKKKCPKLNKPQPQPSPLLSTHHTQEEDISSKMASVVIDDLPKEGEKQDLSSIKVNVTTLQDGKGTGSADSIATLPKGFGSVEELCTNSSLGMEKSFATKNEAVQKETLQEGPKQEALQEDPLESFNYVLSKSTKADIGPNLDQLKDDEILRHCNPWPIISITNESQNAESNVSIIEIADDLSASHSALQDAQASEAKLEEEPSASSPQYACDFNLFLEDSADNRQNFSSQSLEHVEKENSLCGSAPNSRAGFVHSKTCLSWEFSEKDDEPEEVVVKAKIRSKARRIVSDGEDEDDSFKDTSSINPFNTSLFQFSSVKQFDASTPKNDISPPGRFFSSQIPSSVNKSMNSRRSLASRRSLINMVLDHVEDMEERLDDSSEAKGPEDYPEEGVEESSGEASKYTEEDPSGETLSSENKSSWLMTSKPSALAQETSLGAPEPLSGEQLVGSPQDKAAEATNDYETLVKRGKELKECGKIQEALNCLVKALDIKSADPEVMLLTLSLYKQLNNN
UniProt O43768: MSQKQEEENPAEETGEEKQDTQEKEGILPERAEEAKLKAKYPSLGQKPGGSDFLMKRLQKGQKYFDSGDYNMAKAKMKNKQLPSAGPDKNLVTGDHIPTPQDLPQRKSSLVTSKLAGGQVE

Experiments:
Assay in all cases: log2 fold change, soluble protein after heating vs DMSO (PISA); higher = thermal stabilisation; K562 lysate, 10 uM; active = over 0.2 and 3.5 SD of the protein, either way, in both replicates (recomputed)
[1] = compound: NCC(=O)Nc1ccc(-n2nc(C(F)(F)F)cc2-c2ccc3c(ccc4ccccc43)c2)cc1
Outline: (§1)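 Pellets of K562 cells were dounce-homogenised in PBS pH 7.4 with 1 mM MgCl2, and the crude extract was held at 1 mg/mL protein for a 30 min treatment with 10 μM compound. Aliquots were heated for 3 min over 48°C-58°C and pooled before NP-40 was added to 0.5% at 4°C. The supernatant from 21,000xg for 90 min was quantified by TMTpro 16plex LC-MS/MS with channel sums equalised. Values are reported from duplicates as log-two fold change in thermal stability relative to solvent controls.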

[2] = compound: O=C(CCCCCCC(=O)Nc1ccccc1)NO [vorinostat]
Outline: as §1

[3] = compound: O=C(O)c1ccc2c(c1)nc(Nc1cccc(Cl)c1)c1ccncc12 [silmitasertib]
Outline: as §1

[4] = compound: O=C1NC(=O)C(c2cnc3ccccn23)=C1c1cn2c3c(cc(F)cc13)CN(C(=O)N1CCCCC1)CC2
Outline: as §1

[5] = compound: c1cn2cc(-c3ccc4cn[nH]c4c3)nc(Nc3ccc(N4CCOCC4)cc3)c2n1 [entospletinib]
Outline: as §1

Target | log2 fold change [1] | log2 fold change [2] | log2 fold change [3] | log2 fold change [4] | log2 fold change [5]
EIF3E (UniProt P60228) | inactive: -0.044 | inactive: -0.146 | inactive: 0.047 | inactive: -0.027 | inactive: 0.023
EMC2 (UniProt Q15006) | inactive: -0.009 | inactive: 0.046 | inactive: 0.021 | inactive: -0.029 | inactive: -0.005
EPB41L3 (UniProt Q9Y2J2) | inactive: -0.076 | inactive: 0.031 | inactive: 0.024 | inactive: -0.007 | inactive: 0.017
EP300 (UniProt Q09472) | inactive: 0.018 | active: -0.338 | inactive: 0.06 | inactive: 0.015 | inactive: -0.005
EPN1 (UniProt Q9Y6I3) | inactive: -0.004 | inactive: 0.105 | inactive: -0.035 | inactive: 0.007 | inactive: 0.006
ELP6 (UniProt Q0PNE2) | inactive: 0.036 | inactive: -0.111 | inactive: -0.014 | inactive: -0.01 | inactive: -0.019
EP400 isoform 5 (UniProt Q96L91) | inactive: -0.047 | active: -0.279 | inactive: 0.024 | inactive: -0.025 | inactive: -0.021
ELMOD2 (UniProt Q8IZ81) | inactive: 0.066 | inactive: -0.003 | inactive: 0.031 | inactive: 0.003 | inactive: 0.036
EIF3B isoform 2 (UniProt P55884) | inactive: -0.005 | inactive: -0.017 | inactive: 0.013 | inactive: -0.025 | inactive: 0.011
ELAC2 (UniProt Q9BQ52) | inactive: 0.014 | inactive: 0.091 | inactive: 0.005 | inactive: 0.02 | inactive: 0.012
EIPR1 (UniProt Q53HC9) | inactive: 0.001 | inactive: 0.078 | inactive: 0.005 | inactive: -0.031 | inactive: -0.048
EIF5B (UniProt O60841) | inactive: 0.021 | inactive: -0.032 | inactive: 0.02 | inactive: 0.013 | inactive: -0.003
ELP1 (UniProt O95163) | inactive: 0.029 | inactive: -0.029 | inactive: 0.022 | inactive: 0.013 | inactive: 0.027
EPN2 (UniProt O95208) | inactive: -0.005 | inactive: 0.156 | inactive: 0.02 | inactive: -0.001 | inactive: 0.012
EIF4EBP1 (UniProt Q13541) | inactive: 0.065 | inactive: 0.079 | inactive: 0.012 | inactive: -0.001 | inactive: -0.107
ELP4 (UniProt Q96EB1) | inactive: -0.023 | inactive: -0.18 | inactive: 0.014 | inactive: 0.016 | inactive: 0.012
EIF4A3 (UniProt P38919) | inactive: 0.005 | inactive: 0.011 | inactive: 0.038 | inactive: -0.004 | inactive: 0.032
ELAVL1 isoform 2 (UniProt Q15717) | inactive: 0.042 | active: -0.326 | inactive: 0.059 | inactive: -0.051 | inactive: 0
EMC4 (UniProt Q5J8M3) | inactive: -0.055 | inactive: -0.037 | inactive: 0.09 | inactive: -0.02 | inactive: -0.013
EML3 (UniProt Q32P44) | inactive: 0.032 | inactive: -0.014 | inactive: 0.004 | inactive: -0.027 | inactive: 0.017
EMC10 (UniProt Q5UCC4) | inactive: 0.004 | inactive: 0.149 | inactive: -0.005 | inactive: 0 | inactive: -0.021

Some of the entries so far, in markdown.

| Target | log2 fold change [1] | log2 fold change [2] | log2 fold change [3] | log2 fold change [4] | log2 fold change [5] |
| --- | --- | --- | --- | --- | --- |
| EIF3E (UniProt P60228) | inactive: -0.044 | inactive: -0.146 | inactive: 0.047 | inactive: -0.027 | inactive: 0.023 |
| EP300 (UniProt Q09472) | inactive: 0.018 | active: -0.338 | inactive: 0.06 | inactive: 0.015 | inactive: -0.005 |
| EPN1 (UniProt Q9Y6I3) | inactive: -0.004 | inactive: 0.105 | inactive: -0.035 | inactive: 0.007 | inactive: 0.006 |
| ELP6 (UniProt Q0PNE2) | inactive: 0.036 | inactive: -0.111 | inactive: -0.014 | inactive: -0.01 | inactive: -0.019 |
| ELMOD2 (UniProt Q8IZ81) | inactive: 0.066 | inactive: -0.003 | inactive: 0.031 | inactive: 0.003 | inactive: 0.036 |
| ELAC2 (UniProt Q9BQ52) | inactive: 0.014 | inactive: 0.091 | inactive: 0.005 | inactive: 0.02 | inactive: 0.012 |
| EIPR1 (UniProt Q53HC9) | inactive: 0.001 | inactive: 0.078 | inactive: 0.005 | inactive: -0.031 | inactive: -0.048 |
| EIF5B (UniProt O60841) | inactive: 0.021 | inactive: -0.032 | inactive: 0.02 | inactive: 0.013 | inactive: -0.003 |
| EPN2 (UniProt O95208) | inactive: -0.005 | inactive: 0.156 | inactive: 0.02 | inactive: -0.001 | inactive: 0.012 |
| EIF4EBP1 (UniProt Q13541) | inactive: 0.065 | inactive: 0.079 | inactive: 0.012 | inactive: -0.001 | inactive: -0.107 |
| EIF4A3 (UniProt P38919) | inactive: 0.005 | inactive: 0.011 | inactive: 0.038 | inactive: -0.004 | inactive: 0.032 |
| EMC4 (UniProt Q5J8M3) | inactive: -0.055 | inactive: -0.037 | inactive: 0.09 | inactive: -0.02 | inactive: -0.013 |

(listing goes on)

Target | log2 fold change [1] | log2 fold change [2] | log2 fold change [3] | log2 fold change [4] | log2 fold change [5]
ELOC (UniProt Q15369) | inactive: -0.061 | inactive: 0.114 | inactive: -0.07 | inactive: 0.077 | inactive: 0.039
EMP3 (UniProt P54852) | inactive: 0.013 | inactive: -0.022 | inactive: -0.05 | inactive: -0.014 | inactive: 0.144
EP400P1 isoform 6 (UniProt Q6ZTU2) | inactive: 0.168 | inactive: 0.278 | inactive: -0.03 | inactive: 0.028 | inactive: 0.011
ERCC2 (UniProt P18074) | inactive: -0.024 | inactive: -0.179 | inactive: -0.027 | inactive: -0.058 | inactive: 0.012
ENDOG (UniProt Q14249) | inactive: 0.004 | inactive: 0.044 | inactive: -0.023 | inactive: -0.026 | inactive: 0.012
EIF4E3 (UniProt Q8N5X7) | inactive: -0.067 | inactive: 0.04 | inactive: 0.377 | inactive: -0.005 | inactive: 0.044
ERAP1 isoform 2 (UniProt Q9NZ08) | inactive: -0.018 | inactive: 0.074 | inactive: 0.003 | inactive: -0.033 | inactive: 0.01
ELOA (UniProt Q14241) | inactive: -0.031 | inactive: -0.008 | inactive: -0.026 | inactive: 0 | inactive: 0
EIF4EBP2 (UniProt Q13542) | inactive: -0.16 | inactive: 0.15 | inactive: -0.067 | inactive: 0.061 | inactive: -0.318
ERBIN isoform 8 (UniProt Q96RT1) | inactive: -0.016 | inactive: -0.008 | inactive: -0.001 | inactive: -0.017 | inactive: -0.002
EIF3K (UniProt Q9UBQ5) | inactive: -0.072 | inactive: -0.018 | inactive: 0.083 | inactive: 0.045 | inactive: 0.008
ENTPD5 (UniProt O75356) | inactive: -0.041 | inactive: 0.045 | inactive: 0.011 | inactive: -0.027 | inactive: 0.022
ERCC6L (UniProt Q2NKX8) | inactive: -0.003 | inactive: -0.1 | inactive: 0.014 | inactive: -0.028 | inactive: 0.005
EIF3A (UniProt Q14152) | inactive: 0.014 | inactive: -0.06 | inactive: 0.033 | inactive: 0.011 | inactive: 0.04
EIF4H (UniProt Q15056) | inactive: -0.041 | inactive: 0.108 | inactive: -0.01 | inactive: -0.006 | inactive: -0.013
ENGASE (UniProt Q8NFI3) | inactive: -0.01 | active: -0.337 | inactive: 0.05 | inactive: -0.013 | inactive: -0.004
ENSA isoform 3 (UniProt O43768) | inactive: -0.029 | inactive: 0.144 | inactive: -0.019 | inactive: 0.003 | inactive: -0.014
EIF2B4 isoform 2 (UniProt Q9UI10) | inactive: 0.023 | inactive: -0.209 | inactive: 0.013 | inactive: -0.002 | inactive: 0.012
ELAVL4 (UniProt P26378) | inactive: 0.016 | active: -0.402 | inactive: -0.046 | inactive: 0.004 | inactive: -0.067
EOGT (UniProt Q5NDL2) | inactive: 0.112 | inactive: 0.104 | inactive: 0.055 | inactive: -0.046 | inactive: -0.052
ELP3 (UniProt Q9H9T3) | inactive: -0.003 | inactive: 0.015 | inactive: -0.017 | inactive: 0.001 | inactive: 0.012
